Measured values reported in patent EP3838286B1, “ANTIMICROBIAL PEPTIDE FROM POLISTES GALLICUS VENOM AND ITS ANALOGS” (Latoxan, priority 2019, dated 2021).

Experiments:
Assay in all cases: Antitumor / antiproliferative activity (resazurin)
Type in all cases: cell-based
PC-3 = settings: Homo sapiens, prostate cancer cells, 5,000 cells/well, 48 h, read-out: IC50 antiproliferative effect PC-3
Procedure: (§1) Human cancer cell lines (Mia PaCa-2 (CRL-1420), PC-3 (CRL-1435), MDA-MB-231 (HTB-26)) and normal lung fibrobasts (BEAS-2B (ATCC CRL-9609) and IMR-90 (ATCC CCL-186)) were obtained from American Type Culture Collection (ATCC). HUVEC cells were obtained from Sigma Aldrich and were grown in defined all-in-one ready to use endothelial cell growth medium (Sigma Aldrich). Other cells were cultured in Dulbecco's modified Eagle's medium (DMEM, Gibco Life Technologies) supplemented with 10% heat-inactivated fetal calf serum (FCS, Lonza) at 37 °C in an incubator containing 5% CO2. Cells were sub-cultured in new media every 3-4 days. Antiproliferative / antitumor effects of the peptides were measured as previously described (Borie et al., Eur J Med Chem. 2018;148:306-313). Briefly, cells were detached from growing flask using trypsin, cells were counted and seeded in 96 well-plates in the growth media at an initial cell density of 5000 cells/well. Cells were left for 4 h to attach to the wells. Cells were then treated with increasing concentrations of peptides diluted in culture media. After 48 h incubation at 37 °C in a 5% CO2 incubator, wells were emptied and cell number was evaluated using Resazurin based in vitro toxicity assay kit (from Sigma-Aldrich) following manufacturer's instructions. Briefly, Resazurin stock solution was diluted 1:10 in sterile PBS containing calcium and magnesium (PBS, pH 7.4) and empty wells were filled with 100 µL of the diluted solution. After 4 h incubation at 37 °C, fluorescence intensity was measured using microplate reader (Synergy Mx, Biotek) with an excitation wavelength of 530 nm and an emission wavelength of 590 nm. The fluorescence values were normalized by the controls (buffer treated cells) and expressed as per-cent viability. […]

MDA-MB-231 = settings: Homo sapiens, breast cancer cells, 5,000 cells/well, 48 h, read-out: IC50 antiproliferative effect MDA-MB-231
Procedure: as §1

MiaPaCa-2 = settings: Homo sapiens, MIA PaCa-2; pancreas cancer cells; 5,000 cells/well; 48 h; read-out: IC50 antiproliferative effect MiaPaCa-2
Procedure: as §1

## COc1cc2c(c(OC)c1OC)-c1ccc(OC)c(=O)cc1[C@@H](NC(C)=O)CC2 [Col, colchicine]
PC-3
  IC50: 0.699 nM
MDA-MB-231
  IC50: 9.01 nM
MiaPaCa-2
  IC50: 1.52 nM
